Results on 16 molecules are retold here after PubChem BioAssay AID2685 (National Center for Advancing Translational Sciences (NCATS), 2010).

The other results are listed elsewhere or left out. Further columns of the screen follow, without active or inactive calls. Compounds called inactive in the main read-out are mostly missing here. The note in brackets gives the kind of curve behind each potency; many fits are weak. Where a SMILES comes first, the peptide text is derived from it. [ ]: non-standard residue; d: D form. ξ: configuration not given here. ξV = CC(C)C(N)C(=O)O

The test can be described thus: qHTS Assay for Lipid Storage Modulators in Drosophila S3 Cells.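 On cell number change: cells counted by Cell Tracker Red CMTPX staining in the red channel.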 The conditions noted are these: BODIPY lipid droplet fluorescence, 18-24 h; for cell number change: measured here: cell count max response, cells fed with added oleic acid. Summed up: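 Drosophila S3 cells got compounds at several concentrations plus oleic acid (400 uM solution). Laser-scanning cytometry with 488 nm excitation read lipid droplets at 500-530 nm and cells at 575-640 nm. Percent activity was relative to 20 uM Triacsin C.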

[1] abbreviates: measured here: cell number channel AC50, cells fed with added oleic acid.
Setting [2] is: measured here: lipid fluorescence (Fed channel) AC50, cells fed with added oleic acid.

With `CCOc1cc(-c2cc(-c3ccc(C)cc3)nc(N)c2C#N)ccc1O`, the cell number change is -63.1%. Further, under setting [1], the AC50 is 29.1 µM [falling, single point].

Turning to `Cc1ccc(-n2ncc3c2CC(C)(C)CC3NC(=O)c2ccncc2)cc1` (configuration not stated), the cell number change came to 18.1%. Further, the AC50 under setting [2] was 4.61 µM [rising, partial curve, poor fit].

Regarding `Cc1ccc(CC(=O)Nc2cccc(S(=O)(=O)N3CCOCC3)c2)cc1`, the AC50 under setting [1] is 0.58 µM [rising, single point].

Take `Cc1cc(C)n2c(SCc3cccs3)nnc2n1`: the AC50 is 6.51 µM [rising, single point] under setting [1] and 6.51 µM [rising, partial curve] under setting [2].

Take `COc1ccc(CCn2c(-c3ccco3)nc3nc4ccccc4nc32)cc1`: the cell number change was -143%. Also, under setting [1], the AC50 is 29.1 µM [falling, single point]. In addition, the AC50 under setting [2] was 29.1 µM [falling, single point].

On to `O=C(CN1CCN(S(=O)(=O)c2ccc(Br)cc2)CC1)Nc1ccc2c(c1)OCO2`, for which the cell number change is -22.3%. The AC50 under setting [2] was 0.082 µM [falling, full curve, poor fit].

In the case of `CC(=O)NC(C(=O)NCC(N)=O)C(C)C` (configuration not stated) (Ac-[ξV]-Gly-NH2), the cell number change is -4.76%. Moreover, the AC50 under setting [2] is 23.1 µM [falling, single point].

As for `CCNC(=O)c1ccc(C2SCC(=O)N2Cc2ccco2)cc1` (configuration not stated), the cell number change is -20.9%. Moreover, the AC50 under setting [2] is 0.164 µM [falling, full curve, poor fit].

With `COc1ccc(NS(=O)(=O)c2ccc(S(=O)(=O)N3CCCC3)cc2)cc1`, the cell number change was 14.8%. Under setting [2], the AC50 is 4.11 µM [rising, single point].

`CCOC(=O)C1CCN(S(=O)(=O)c2ccc(OC)c(C(=O)N3CCCCCC3)c2)CC1`: the cell number change is 40.8%. The AC50 under setting [1] is 5.8 µM [rising, full curve, poor fit].

Consider `CC(C)CCN(C(=O)Cc1ccccc1F)c1c(N)n(Cc2ccccc2)c(=O)[nH]c1=O`, for which the cell number change is 18.8%.

Take `CN(C)c1nc(Oc2ccc(/C=N/O)cc2)nc(N(C)C)n1`: the cell number change was -19.3%. Also, the concentration at half-maximal activity (AC50) under setting [2] is 8.2 µM [rising, partial curve].

Turning to `CCCn1c(N)c(N(CCOC)C(=O)c2ccc(F)cc2F)c(=O)[nH]c1=O`, the cell number change came out at 5.26%. Also, the AC50 under setting [2] was 3.16 µM [rising, partial curve].

For `CCc1ccc(N(CC)C(=O)c2ccc3c(Cl)c4c(nc3c2)CCC4)cc1`, the cell number change was 10%. In addition, the AC50 under setting [2] was 1.64 µM [rising, partial curve, poor fit].

For `CN1CCN(CC(O)COc2ccc(C34CC5CC(CC(C5)C3)C4)cc2)CC1` (configuration not stated), the cell number change was 5.85%. Moreover, the AC50 under setting [2] was 0.116 µM [falling, full curve, poor fit].

As for `CCOC(=O)C1CCCN(C(=O)c2cc3c(C)nc4ccccc4c3o2)C1` (configuration not stated), the cell number change turned out to be 31.4%. The AC50 under setting [1] was 1.03 µM [rising, full curve]. Also, the AC50 under setting [2] was 29.1 µM [rising, single point].
